42 sequences from paper PMC7819943, “Rice protein-binding microarrays: a tool to detect cis-acting elements near promoter regions in rice” can be followed below.

This is one part of the list.

For this assay, the target named is T1, OsSMF1 (Oryza sativa, UniProt Q6ZLB0 1-436).
T1 sequence: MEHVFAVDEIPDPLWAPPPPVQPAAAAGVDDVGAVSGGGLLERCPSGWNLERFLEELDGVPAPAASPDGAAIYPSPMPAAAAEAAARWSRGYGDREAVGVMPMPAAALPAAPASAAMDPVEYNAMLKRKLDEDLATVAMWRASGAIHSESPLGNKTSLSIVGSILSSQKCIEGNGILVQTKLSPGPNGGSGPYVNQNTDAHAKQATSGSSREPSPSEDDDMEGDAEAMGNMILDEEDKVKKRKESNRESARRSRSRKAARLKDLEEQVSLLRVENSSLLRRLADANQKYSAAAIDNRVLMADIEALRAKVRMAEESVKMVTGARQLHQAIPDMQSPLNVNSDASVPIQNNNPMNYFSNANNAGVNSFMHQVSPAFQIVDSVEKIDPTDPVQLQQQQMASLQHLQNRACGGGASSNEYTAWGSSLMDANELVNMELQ
As to the kind of experiment: protein-binding microarray (RPBM); PBS, 2% BSA, 51.3 ng/ul salmon testes DNA, 50 uM zinc acetate, 200 nM TF, 25 C, 1 h; high values mean tight binding. Conditions: protein: recombinant; tags: N-terminal polyhistidine and DsRed monomer fusion (pET32a); chain copies: 2; label: CyDye5-dUTP incorporated in the synthesized complementary strand; 3' TTTTT single-stranded linker to array surface; dsDNA, one strand shown. The procedure, abridged:
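The binding signal for each feature is its fluorescence intensity in arbitrary units. An Axon 4000B scanner was used to read a custom Agilent array that had been made double-stranded with Cy5-dUTP primer extension, blocked with 2% BSA, incubated at 25 °C for 1 h with 200 nM protein in PBS, 2% BSA, salmon testes DNA and 50 µM zinc acetate, and washed. The protein was an N-terminal polyhistidine–DsRed transcription factor fusion from E. coli BL21-CodonPlus, purified on Ni–NTA.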
“GTTGAGTTGGGCCCACCTGTCAGCTAACACTATGATGGGCCGGAGTCACCTAGTGCAG”: the binding signal is 3650 fluorescence intensity (a.u.).
As for “AACGTGACGTGCAACAATTTTCACGTATGCTCAGTTCTTCCGGAGTCACCTAGTGCAG”, the figure is 5770 fluorescence intensity (a.u.); as for “CGACGGCCACAACCGGTTGTGGCGGCGTCTGCGTTGGCAGCGGAGTCACCTAGTGCAG”, 5430 fluorescence intensity (a.u.).
As for “CGACCGCAAGCTCGCCGCGTCGATGCTCTCCAGCTCTCCCCGGAGTCACCTAGTGCAG”, the figure is 3340 fluorescence intensity (a.u.); as for “TGTATTGATGTTTCATATATGCATGTATTGATGTTTGTTTCGGAGTCACCTAGTGCAG”, 3260 fluorescence intensity (a.u.); as for “ATTTTCAGGCCAACCAACTAACACGGCAAGTGAGATGCTTCGGAGTCACCTAGTGCAG”, 3340 fluorescence intensity (a.u.).
The result for “GCTGGGCTGACGTGTTACACCCCTGGCAAATCCAGCGTGGCGGAGTCACCTAGTGCAG” reads 15200 fluorescence intensity (a.u.); that for “GCACTAACCTGGGCTACATGATTTTCCAAGTCAGCACTTACGGAGTCACCTAGTGCAG”, 7320 fluorescence intensity (a.u.).
As for “CCCGTTCGCTGGCCGAAGCTCCGCCGTCAGACATGACGCCCGGAGTCACCTAGTGCAG”, the binding signal is 3650 fluorescence intensity (a.u.).
As for “TCTACTGTGTGTGTGTGTGTGTGTGTTCACTACTGGATAGCGGAGTCACCTAGTGCAG”, the figure is 3160 fluorescence intensity (a.u.).
As for “ATATAGGACTTGCCAACAGTGATTGACCTCACAGGCTCACCGGAGTCACCTAGTGCAG”, the figure is 3380 fluorescence intensity (a.u.).
As for “AGCATCTTCGCTTGTGGTGCCGCACTGCCACCTACCCATCCGGAGTCACCTAGTGCAG”, the figure is 3940 fluorescence intensity (a.u.); as for “TCACTTCTCTCCTCCACATGTGCATACAACTGACTTATAACGGAGTCACCTAGTGCAG”, 4660 fluorescence intensity (a.u.).
As to “AGGCAAGACGATATGCATGACGCTGTAGGTGGAAAGTTGGCGGAGTCACCTAGTGCAG”, the binding signal is 3300 fluorescence intensity (a.u.).
As for “TTGGACTAGGGTGGTGGCGTGTCAAGTGGACAACACGACGCGGAGTCACCTAGTGCAG”, the figure is 5600 fluorescence intensity (a.u.); as for “TATATATATATATATAGACACACACGTGGGATAAGGAGAACGGAGTCACCTAGTGCAG”, 5540 fluorescence intensity (a.u.).
As for “TCCAATCAGACGACTATTCCTATGTTTTACAATTCTCTATCGGAGTCACCTAGTGCAG”, the figure is 51200 fluorescence intensity (a.u.); as for “ATAGCTAGCTGTGAGCAACTGACTGAACATTTATCAAATGCGGAGTCACCTAGTGCAG”, 3420 fluorescence intensity (a.u.); as for “TTGAGGTTTGTTCATGGTTGTCTATTTTCCAGTATTAGCTCGGAGTCACCTAGTGCAG”, 3300 fluorescence intensity (a.u.).
As for “GAGCGCGGAAGCCGGCGGCGGCCGTACGTGTTCGGCCGGCCGGAGTCACCTAGTGCAG”, the figure is 3410 fluorescence intensity (a.u.); as for “CCTCCGTGGTATTCAGACTGAGAGTAAGGAACCGCATATTCGGAGTCACCTAGTGCAG”, 3980 fluorescence intensity (a.u.).
As to “ATAGCCCAAAAGTGACCGAAAGGAAAGCTGACAAGGACCACGGAGTCACCTAGTGCAG”, the binding signal was 4800 fluorescence intensity (a.u.).
With “TCCAAGGTTCACAAAATATAGAGGCCAACACATGCATATTCGGAGTCACCTAGTGCAG”, the binding signal is 3560 fluorescence intensity (a.u.).
The result for “TACTATTATTCATAAGGTCATAGTCATTGCCTGCATAGTGCGGAGTCACCTAGTGCAG” reads 3550 fluorescence intensity (a.u.); that for “GAGTATTATATAGTTTCGTCATGATAGTCTTATACACGCACGGAGTCACCTAGTGCAG”, 16400 fluorescence intensity (a.u.); that for “AATCCTAGTTTACTGGCAATTGGCAGTTTGAGGACGTCAGCGGAGTCACCTAGTGCAG”, 4420 fluorescence intensity (a.u.).
As for “GGCTTCGCATCGCTCCTCCTCGTCTGACTTCGCGTCACTCCGGAGTCACCTAGTGCAG”, the figure is 5140 fluorescence intensity (a.u.); as for “TTATAGATGGCGATGGGACCGATCATCAATCCCCATGGTGCGGAGTCACCTAGTGCAG”, 3150 fluorescence intensity (a.u.); as for “GTTAGTCCTGATAAGCAGGGGATGCTGACACGCAGGGACTCGGAGTCACCTAGTGCAG”, 4160 fluorescence intensity (a.u.).
As for “ATCATTCGTTAGGTCGTAGTCGGGTTGGTAGGTACTTGGCCGGAGTCACCTAGTGCAG”, the figure is 3280 fluorescence intensity (a.u.); as for “AGATATACACACAGTGCATGCAAAAGAGCATGATTAGCATCGGAGTCACCTAGTGCAG”, 3340 fluorescence intensity (a.u.); as for “GCAGCAGGTTCAAAGCTGCTGATGATGCTATTTATGTTTCCGGAGTCACCTAGTGCAG”, 3520 fluorescence intensity (a.u.).
“CGTGACCGGCGTAGGTGTTCCCCTCCCCTGGCTACGTCTGCGGAGTCACCTAGTGCAG”: the binding signal was 3520 fluorescence intensity (a.u.).
With “GAACCGTTAGCGTACGCTACACCCGGCCCCACGCGTCAGTCGGAGTCACCTAGTGCAG”, the binding signal was 5090 fluorescence intensity (a.u.).
As for “CGTGTACCACCGTGCGACGCGTGGCTTGCTTCTACCACGCCGGAGTCACCTAGTGCAG”, the figure is 4700 fluorescence intensity (a.u.); as for “TGTGATACTCTGTCTCCCTGTGATACCAGCACTATTTCCTCGGAGTCACCTAGTGCAG”, 4260 fluorescence intensity (a.u.).
As for “GGAAGGGAGAGAAGAGGGGAAAGAGAGAGGGTGACGTGGACGGAGTCACCTAGTGCAG”, the figure is 19300 fluorescence intensity (a.u.).
The result for “CTTGTTATGTTCCGTTTCTTCCAGCTTTGGTGCTCTCTCACGGAGTCACCTAGTGCAG” reads 30500 fluorescence intensity (a.u.); that for “GTAACACTTTCAATATGTAGTTTTGTGATAATTTAGTTAACGGAGTCACCTAGTGCAG”, 3880 fluorescence intensity (a.u.).
With “GGCAGATGCCAGGTCAGCTCCAACATTTTCCTGTGCTTTGCGGAGTCACCTAGTGCAG”, the binding signal was 15900 fluorescence intensity (a.u.).
The result for “GGCGATGCGGAAAGCTACGTCCCTCTGACGTAGAATTTAACGGAGTCACCTAGTGCAG” reads 4650 fluorescence intensity (a.u.); that for “CGCGCTGTCTGCACCGCCGCCGCCGCCGCCGGCGGAACCCCGGAGTCACCTAGTGCAG”, 25200 fluorescence intensity (a.u.).
